# Assay results: patent publication US20090257985A1, “METHODS OF REGULATING EXPRESSION OF GENES OR OF GENE PRODUCTS USING SUBSTITUTED TETRACYCLINE COMPOUNDS” (priority 2006, published 2009)
# By UniProt entry, the sequences of proteins in these tests, tags left out.
# UniProt P04483, whole entry, added parts left off: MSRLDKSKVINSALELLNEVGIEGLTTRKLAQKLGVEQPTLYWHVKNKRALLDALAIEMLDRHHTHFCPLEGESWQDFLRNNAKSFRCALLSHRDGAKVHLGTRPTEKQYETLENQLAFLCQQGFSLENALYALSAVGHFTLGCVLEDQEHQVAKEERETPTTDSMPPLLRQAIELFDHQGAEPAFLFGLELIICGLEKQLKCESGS
# At least one structure is not confirmed: it was looked up by name or label, or the drawing left a doubt.
# Target: tTA (Escherichia coli, UniProt P04483)
# Test: Dose response study with X1/5 cells (tTA gene and luciferase gene under tetracycline-inducible promoter)
# Settings: 0, 30 through 3000 ng/mL, three days incubation
smiles,measurement,value
C[C@H]1c2cccc(O)c2C(=O)C2=C(O)[C@]3(O)C(=O)C(C(N)=O)=C(O)[C@@H](N(C)C)[C@@H]3[C@@H](O)[C@@H]21 [doxycycline],luciferase activity (luc gene switch),turned off the luc gene
